Results from patent US20140286945A1, “ENZYME INHIBITOR FOR CANCER TREATMENT” (The Curators of the University of Missouri, priority 2011, published 2014).
At least one structure is not confirmed: it was looked up by name or label, or the drawing left a doubt.

Experiments:
Type in all cases: cell-based
CD-20 = test: Flow-cytometric analysis of CD-20 in Mec-2 cells; conditions: flow cytometry, Fludarabine 10 μM, compared to control (FIG. 2)
CD-54 = test: Flow-cytometric analysis of CD-54 in Mec-2 cells; conditions: flow cytometry, Fludarabine 10 μM, compared to control (FIG. 2)
Mec-2 cells = test: MTT assay of cell viability/proliferation in Mec-2 cells

Compound: Nc1nc(F)nc2c1ncn2[C@@H]1O[C@H](CO)[C@@H](O)[C@@H]1O [Fludarabine]
- CD-20 cell surface expression (CD-20): down regulates
- CD-54 cell surface expression (CD-54): down regulates
- effect on cell proliferation (Mec-2 cells; 10 μM TAK-475, 10 μM Fludarabine, 10 μg/mL Rituximab (FIG. 13)): reduces Mec-2 cell proliferation moderately
- effect on cell proliferation, agents alone (Mec-2 cells; 72 hours, BIBB515 at 10 μm (10^−5), Fludarabine 10 μM (FIG. 4)): resistant
- effect on cell proliferation (Mec-2 cells; Terbinafine study, Fludarabine 10 μM (FIG. 5)): not response
